## Library compounds against nucleic acid targets

Oligonucleotides screened, 5′ to 3′:
T1: PreQ1 riboswitch RNA pseudoknot, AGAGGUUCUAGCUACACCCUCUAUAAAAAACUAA. From B. subtilis. About 24,000 compounds screened, about 170 hits.
T2: TPP riboswitch RNA three-way junction, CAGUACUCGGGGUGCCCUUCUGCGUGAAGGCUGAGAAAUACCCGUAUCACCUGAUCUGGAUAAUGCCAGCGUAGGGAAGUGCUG. About 24,000 compounds screened, about 160 hits.
T3: SAM-II riboswitch RNA pseudoknot, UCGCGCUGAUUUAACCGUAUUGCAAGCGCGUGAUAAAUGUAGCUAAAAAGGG. About 21,000 compounds screened, about 200 hits.

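Compounds were printed on reactive glass slides in duplicate spots, a dye-labelled oligonucleotide was laid over them, and the fluorescence left after washing was read. The data file lists only calls. An earlier report of the laboratory on the PreQ1, TPP and SAM-II riboswitches (doi:10.1038/s41467-019-09493-3) used 1 µM RNA for 2 h and required a mean Z-score above 3 (spot signal-to-noise against the whole library), a score well above that on a control array, and duplicate spots agreeing (coefficient of variation under 100); it then also set aside compounds that hit other targets, which this list keeps. The cut-offs behind this list may differ. These are primary screening calls, not affinities; a compound without a hit may have attached poorly or may still bind in solution.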
A compound is marked hit if it was called a hit and no hit if it was screened but was not.
The compounds are a random part of those screened.
A dash means that no call is listed here.

SMILES,T1,T2,T3
C=CCn1cc(CN2CC[C@@H](c3cccc(OC)c3)[C@H](O)C2)c(C)n1,no hit,no hit,no hit
Cc1cc(Nc2ccc(N3CCN(C(=O)c4cccs4)CC3)c(Cl)c2)n2ncnc2n1,no hit,no hit,no hit
O=C(CN1CCN(CCO)CC1)N1c2ccccc2Sc2ccc(Cl)cc21,no hit,no hit,no hit
CC(=O)N1C(NCc2ccccc2)CC(C)N1c1ccccc1 (stereo not shown),no hit,no hit,no hit
CCN(CC)CCCCNc1ncc2cc(-c3cc(OC)cc(OC)c3)c(NC(=O)NC(C)(C)C)nc2n1,no hit,no hit,no hit
C=CCOc1ccc(Br)cc1C1C(C#N)=C(N)Oc2cc3c(cc21)OCO3 (stereo not shown),no hit,no hit,no hit
Cn1c(CO)nnc1CC1CCN(c2nc3ccccc3n2CCO)CC1,no hit,no hit,no hit
Nc1ccccc1-c1nc(Br)nn1Cc1ccc(F)cc1,no hit,no hit,no hit
c1cncc(CNCCc2c[nH]c3ccccc23)c1,no hit,no hit,no hit
Cc1ncc2c(c1CNC(=O)c1cc(-c3ccccc3)on1)CCNC2,no hit,no hit,no hit
COC(=O)c1cccc(Nc2ncnc3ccc(Br)cc23)c1,no hit,no hit,no hit
Oc1ccc(/C=C\c2cnccn2)cc1,no hit,no hit,no hit
O=C(N1CC=C(c2ccc(F)cc2)CC1)[C@]12CNC[C@H]1CNC2,no hit,no hit,no hit
Cc1ccc2nc(C(=O)O)cc(Nc3cccc(Cl)c3)c2c1,no hit,no hit,no hit
COc1ccc(CCN(C)C2CCCN(c3ccnc(N)n3)C2)cc1OC (stereo not shown),no hit,no hit,no hit
CC(C)CCNc1nnnc2c1sc1nc(N3CCOCC3)c3c(c12)CCCC3,no hit,no hit,no hit
NCc1nnc(SCc2cccc(Br)c2)o1,no hit,no hit,-
CCCSc1ncc(CN2CCOC(CN)C2)cn1 (stereo not shown),no hit,no hit,no hit
CN(C)C(=O)N1CCn2nc(CNC(=O)[C@@H](N)C3CCCCC3)cc2C1,no hit,no hit,no hit
CCC(C)c1ccc(Cn2c(C(C)O)nc3ccccc32)cc1 (stereo not shown),no hit,no hit,no hit
O=C(Nc1ccc2ccccc2c1)c1cccc(F)c1,no hit,no hit,no hit
CCCCCCCCCCC(C(=O)O)C1(C(=O)O)CCC(=O)O1 (stereo not shown),no hit,no hit,no hit
CCN(CC)c1ccc2c(c1)OC(N)=C(C#N)C2c1ccc(Cl)cc1 (stereo not shown),no hit,no hit,no hit
Cc1ccccc1CN1c2ccccc2C2=C(C(c3ccc(Cl)cc3)C(C#N)=C(N)O2)S1(=O)=O (stereo not shown),no hit,no hit,-
Cc1n[nH]c(C)c1CCCn1ccnc1-c1cn(C2CCNCC2)nn1,no hit,no hit,no hit
CCN(CC)c1ccc2c(C)c(CO)c(=O)oc2c1,no hit,no hit,no hit
Nc1nc(CCC(=O)N2CCC[C@@H]2CO)cs1,no hit,no hit,no hit
COc1ccc(OCC(O)Cn2c(NN=C3C(=O)Nc4ccccc43)nc3c2c(=O)[nH]c(=O)n3C)cc1 (stereo not shown),no hit,no hit,no hit
N=C(NN=Cc1ccccc1)c1nonc1N,no hit,no hit,no hit
O=C(c1nc[nH]n1)N1CCN(c2ncnc3c2CCNCC3)CC1,no hit,no hit,no hit
CCCCCCCn1c(CO)nc2ccccc21,no hit,no hit,no hit
CCC(O)Cn1nc(CCSC)nc1-c1ccc(N2CCCC2)cc1 (stereo not shown),no hit,no hit,no hit
Nc1c(C(=O)NCc2ccccc2)nnn1-c1cccc(Cl)c1,no hit,no hit,no hit
Cc1nc(N2C[C@H]3CC[C@@H](C2)NC3)c2ccsc2n1,no hit,no hit,no hit
CCc1cnn2c(NCc3ccc[n+]([O-])c3)cc(N3CCCC[C@@H]3CCO)nc12,no hit,no hit,no hit
CCn1c(CCNC(=O)CCCO)nc2ccccc21,no hit,no hit,-
c1ccc(-c2ccc(CNCc3cccnc3)o2)cc1,no hit,no hit,-
Nc1ncc(Br)cc1S(=O)(=O)Nc1ccc(C(F)(F)F)cc1,no hit,no hit,-
Cc1ccc(Nc2nc(C)cc(N3CCN(S(=O)(=O)c4cc(F)ccc4C)CC3)n2)cc1,no hit,no hit,-
CCC(C)Nc1nc2c(c(=O)n(C)c(=O)n2C)n1Cc1ccccc1 (stereo not shown),no hit,no hit,no hit
Cc1ccc2c(c1)SC(=Cc1cccc[n+]1C)N2CCO,no hit,no hit,no hit
CNCCN1C(=O)CC[C@H]2CN(Cc3cccc(OC(F)F)c3)CC[C@H]21,no hit,no hit,no hit
COc1ccccc1Nc1c(-c2ccc(Br)cc2)nc2cnccn12,no hit,no hit,-

Once more, the final 5:

SMILES	T1	T2	T3
Cc1ccc(Nc2nc(C)cc(N3CCN(S(=O)(=O)c4cc(F)ccc4C)CC3)n2)cc1	no hit	no hit	-
CCC(C)Nc1nc2c(c(=O)n(C)c(=O)n2C)n1Cc1ccccc1 (stereo not shown)	no hit	no hit	no hit
Cc1ccc2c(c1)SC(=Cc1cccc[n+]1C)N2CCO	no hit	no hit	no hit
CNCCN1C(=O)CC[C@H]2CN(Cc3cccc(OC(F)F)c3)CC[C@H]21	no hit	no hit	no hit
COc1ccccc1Nc1c(-c2ccc(Br)cc2)nc2cnccn12	no hit	no hit	-

Calls as published in the ROBIN set (doi:10.1002/anie.202211358).